From paper PMC11718114
No constants are given. Whether binding was seen depends on the method and setting.

Amino acid sequences for entries named in this document (tags omitted). A change or cut given only in a name is not applied to a line headed by its entry. Residues count along the entry.
UniProt P42336, residues 157-289: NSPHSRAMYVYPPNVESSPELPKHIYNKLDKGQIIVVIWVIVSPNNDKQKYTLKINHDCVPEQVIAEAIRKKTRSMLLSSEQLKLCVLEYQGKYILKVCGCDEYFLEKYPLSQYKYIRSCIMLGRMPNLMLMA
UniProt Q92963, residues 2-219: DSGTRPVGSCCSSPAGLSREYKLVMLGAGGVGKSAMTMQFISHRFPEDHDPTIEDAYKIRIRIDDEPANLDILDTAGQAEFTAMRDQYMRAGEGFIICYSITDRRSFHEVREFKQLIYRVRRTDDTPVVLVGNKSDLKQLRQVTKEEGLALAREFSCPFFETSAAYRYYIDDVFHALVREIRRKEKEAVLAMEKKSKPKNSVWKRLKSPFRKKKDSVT

Legend:
[1] = molecular target: T1, PI3Kα: p110α(2-1068)W1057A/I1058A/F1059A + p85(322-600) (human) (UniProt P42336+P27986); assay: condition: 300–500 μM in the syringe into 30–50 μM in the cell; ITC; RAS GTPase (GMPPNP-bound, 300–500 μM) in the syringe, PI3K isoform or PI3Kα-RBD (30–50 μM) in the cell; 25 °C; 20 mM HEPES pH 7.4, 150 mM NaCl, 5 mM MgCl2, 1 mM TCEP; one set of sites; two replicates; both purified
[2] = molecular target: PI3Kα-RBD, PIK3CA-RBD(157-289) (human) (UniProt P42336); assay: as above
[3] = molecular target: T1, PI3Kα: p110α(2-1068)W1057A/I1058A/F1059A + p85(322-600) (human); assay: condition: 300–500 μM RAS in the syringe, 30–50 μM PI3K in the cell; ITC; GMPPNP-bound RAS (300–500 μM) in the syringe, PI3K isoform or PI3Kα-RBD (30–50 μM) in the cell; 25 °C; 20 mM HEPES pH 7.4, 150 mM NaCl, 5 mM MgCl2, 1 mM TCEP; one set of sites; duplicates; both purified

Row | binding [1] | binding [2] | binding [3] | Substance
1 | no binding | no binding |  | RIT1(2-219), GMPPNP-bound (from UniProt Q92963 2-219) (domain or fragment)
2 |  |  | no binding | RIT1(2-219) (from UniProt Q92963 2-219) (domain or fragment)
